Here are results for 23 targets from the supplement of paper PMC10849652.

Chains of the proteins cited; added tags and fusions are not shown. Lines headed by an entry give the natural chain unless they say otherwise; changes in a name come on top.
UniProt Q9BSJ2, whole entry, looked up: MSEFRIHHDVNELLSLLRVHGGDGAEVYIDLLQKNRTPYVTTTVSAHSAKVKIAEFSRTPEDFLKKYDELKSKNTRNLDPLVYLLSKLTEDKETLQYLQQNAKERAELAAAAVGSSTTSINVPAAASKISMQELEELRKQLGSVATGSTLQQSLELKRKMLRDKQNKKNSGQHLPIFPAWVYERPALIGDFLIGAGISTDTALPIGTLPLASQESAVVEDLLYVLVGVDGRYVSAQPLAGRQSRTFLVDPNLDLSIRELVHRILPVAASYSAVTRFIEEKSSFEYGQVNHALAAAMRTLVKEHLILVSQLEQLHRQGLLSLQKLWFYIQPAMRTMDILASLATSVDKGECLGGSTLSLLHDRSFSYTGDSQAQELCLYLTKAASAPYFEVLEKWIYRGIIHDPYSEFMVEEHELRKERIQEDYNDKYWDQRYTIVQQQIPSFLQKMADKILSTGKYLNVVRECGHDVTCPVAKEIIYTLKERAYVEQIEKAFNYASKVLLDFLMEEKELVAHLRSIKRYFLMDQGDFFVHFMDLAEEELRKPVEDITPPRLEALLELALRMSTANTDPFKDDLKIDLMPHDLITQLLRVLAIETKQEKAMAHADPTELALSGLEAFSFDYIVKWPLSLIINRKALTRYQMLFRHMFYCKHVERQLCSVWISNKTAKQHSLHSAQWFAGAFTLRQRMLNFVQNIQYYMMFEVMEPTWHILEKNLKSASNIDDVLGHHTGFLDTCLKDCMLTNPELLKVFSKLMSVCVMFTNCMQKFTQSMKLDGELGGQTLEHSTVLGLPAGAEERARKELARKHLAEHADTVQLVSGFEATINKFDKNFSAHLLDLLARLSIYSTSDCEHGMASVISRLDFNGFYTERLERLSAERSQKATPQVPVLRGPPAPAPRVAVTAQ
UniProt O15042: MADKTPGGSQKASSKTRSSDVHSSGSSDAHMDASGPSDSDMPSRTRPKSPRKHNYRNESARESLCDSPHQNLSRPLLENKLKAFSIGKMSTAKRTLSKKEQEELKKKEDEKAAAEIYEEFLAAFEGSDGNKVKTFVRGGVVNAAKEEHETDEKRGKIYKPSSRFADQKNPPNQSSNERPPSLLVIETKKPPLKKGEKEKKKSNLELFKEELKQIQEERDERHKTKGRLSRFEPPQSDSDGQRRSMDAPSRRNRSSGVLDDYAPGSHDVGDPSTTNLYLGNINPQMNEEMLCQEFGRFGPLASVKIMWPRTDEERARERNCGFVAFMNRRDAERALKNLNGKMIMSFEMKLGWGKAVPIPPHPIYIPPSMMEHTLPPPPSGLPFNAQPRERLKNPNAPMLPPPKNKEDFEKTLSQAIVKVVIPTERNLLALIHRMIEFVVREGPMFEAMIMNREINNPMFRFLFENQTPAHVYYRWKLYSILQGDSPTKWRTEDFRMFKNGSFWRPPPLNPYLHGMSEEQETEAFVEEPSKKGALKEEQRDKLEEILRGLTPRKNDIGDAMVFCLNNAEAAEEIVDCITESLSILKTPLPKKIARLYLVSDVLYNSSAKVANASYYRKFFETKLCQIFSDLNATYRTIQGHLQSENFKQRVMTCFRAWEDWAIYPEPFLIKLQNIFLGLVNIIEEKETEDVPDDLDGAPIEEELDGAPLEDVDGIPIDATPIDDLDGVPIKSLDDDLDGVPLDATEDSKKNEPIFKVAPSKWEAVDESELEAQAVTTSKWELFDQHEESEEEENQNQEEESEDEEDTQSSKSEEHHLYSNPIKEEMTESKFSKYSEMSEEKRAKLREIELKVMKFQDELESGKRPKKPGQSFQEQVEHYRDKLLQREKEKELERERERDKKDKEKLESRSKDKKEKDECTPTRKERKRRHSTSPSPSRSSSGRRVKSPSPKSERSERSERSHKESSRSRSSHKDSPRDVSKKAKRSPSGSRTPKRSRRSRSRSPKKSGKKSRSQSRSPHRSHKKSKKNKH
UniProt Q3KQV9: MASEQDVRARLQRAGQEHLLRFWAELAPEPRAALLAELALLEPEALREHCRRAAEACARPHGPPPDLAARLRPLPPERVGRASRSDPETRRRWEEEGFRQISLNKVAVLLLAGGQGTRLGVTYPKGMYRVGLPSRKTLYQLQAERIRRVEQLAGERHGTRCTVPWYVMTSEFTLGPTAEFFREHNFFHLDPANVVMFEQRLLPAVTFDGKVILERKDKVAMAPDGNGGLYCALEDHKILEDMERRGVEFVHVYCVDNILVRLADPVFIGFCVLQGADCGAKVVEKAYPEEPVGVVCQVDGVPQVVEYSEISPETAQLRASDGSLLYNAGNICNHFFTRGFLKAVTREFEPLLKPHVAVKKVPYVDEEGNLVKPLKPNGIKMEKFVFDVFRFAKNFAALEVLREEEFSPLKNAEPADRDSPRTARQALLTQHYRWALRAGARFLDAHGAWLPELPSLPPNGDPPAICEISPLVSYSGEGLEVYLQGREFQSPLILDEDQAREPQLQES
UniProt Q9P2K2: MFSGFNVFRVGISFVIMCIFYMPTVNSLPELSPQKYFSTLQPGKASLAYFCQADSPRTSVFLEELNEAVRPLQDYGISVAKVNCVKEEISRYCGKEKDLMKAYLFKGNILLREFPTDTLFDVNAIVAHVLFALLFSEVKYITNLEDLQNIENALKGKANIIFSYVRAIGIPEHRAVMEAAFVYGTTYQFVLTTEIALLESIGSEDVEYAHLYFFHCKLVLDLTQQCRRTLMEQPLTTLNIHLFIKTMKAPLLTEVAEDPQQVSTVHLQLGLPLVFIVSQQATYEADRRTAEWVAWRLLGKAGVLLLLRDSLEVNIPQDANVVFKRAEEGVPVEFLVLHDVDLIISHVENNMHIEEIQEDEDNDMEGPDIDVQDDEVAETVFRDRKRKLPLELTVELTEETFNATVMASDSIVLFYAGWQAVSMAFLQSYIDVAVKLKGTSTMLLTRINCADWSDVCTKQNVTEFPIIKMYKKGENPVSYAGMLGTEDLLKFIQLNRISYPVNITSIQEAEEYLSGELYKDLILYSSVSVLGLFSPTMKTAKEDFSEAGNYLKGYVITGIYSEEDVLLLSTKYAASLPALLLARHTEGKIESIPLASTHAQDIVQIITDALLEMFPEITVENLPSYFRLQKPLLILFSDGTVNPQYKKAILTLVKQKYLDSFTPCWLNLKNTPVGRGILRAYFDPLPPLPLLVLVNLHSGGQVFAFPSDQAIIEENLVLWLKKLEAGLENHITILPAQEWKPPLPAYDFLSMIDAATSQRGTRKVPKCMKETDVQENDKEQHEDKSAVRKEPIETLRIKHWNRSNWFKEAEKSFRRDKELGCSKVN
UniProt P61088: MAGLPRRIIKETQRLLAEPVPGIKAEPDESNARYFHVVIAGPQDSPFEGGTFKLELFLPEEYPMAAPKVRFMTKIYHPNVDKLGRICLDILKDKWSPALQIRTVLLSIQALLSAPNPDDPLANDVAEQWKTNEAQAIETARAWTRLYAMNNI
UniProt O60637: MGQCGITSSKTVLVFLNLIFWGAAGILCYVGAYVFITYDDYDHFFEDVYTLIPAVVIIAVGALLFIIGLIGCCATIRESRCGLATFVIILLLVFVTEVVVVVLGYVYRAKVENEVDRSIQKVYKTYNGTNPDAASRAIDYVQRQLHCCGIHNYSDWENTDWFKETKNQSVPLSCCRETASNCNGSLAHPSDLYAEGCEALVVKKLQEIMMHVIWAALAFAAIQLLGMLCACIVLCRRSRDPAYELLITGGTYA
UniProt Q9GZZ9, whole entry, looked up: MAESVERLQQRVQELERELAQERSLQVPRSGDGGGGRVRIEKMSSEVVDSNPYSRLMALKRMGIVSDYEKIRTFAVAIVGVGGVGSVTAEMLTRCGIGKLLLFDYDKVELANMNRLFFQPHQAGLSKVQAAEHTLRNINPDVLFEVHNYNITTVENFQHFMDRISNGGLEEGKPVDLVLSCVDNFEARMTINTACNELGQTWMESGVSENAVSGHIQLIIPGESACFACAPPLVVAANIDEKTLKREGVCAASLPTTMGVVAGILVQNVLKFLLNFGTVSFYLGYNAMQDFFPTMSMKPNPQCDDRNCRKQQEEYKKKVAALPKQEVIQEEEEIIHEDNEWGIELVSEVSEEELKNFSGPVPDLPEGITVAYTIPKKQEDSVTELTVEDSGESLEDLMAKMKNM
UniProt Q9H832: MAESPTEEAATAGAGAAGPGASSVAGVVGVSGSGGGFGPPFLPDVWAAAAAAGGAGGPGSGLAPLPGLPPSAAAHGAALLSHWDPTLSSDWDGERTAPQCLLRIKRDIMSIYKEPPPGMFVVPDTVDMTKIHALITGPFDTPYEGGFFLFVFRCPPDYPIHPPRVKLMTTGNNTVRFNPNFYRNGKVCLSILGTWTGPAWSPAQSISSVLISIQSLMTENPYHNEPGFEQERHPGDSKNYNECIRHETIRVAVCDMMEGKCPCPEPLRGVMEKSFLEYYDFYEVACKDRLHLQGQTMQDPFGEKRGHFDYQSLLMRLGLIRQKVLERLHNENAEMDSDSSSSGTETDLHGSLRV
UniProt Q9H4B7, whole entry, looked up: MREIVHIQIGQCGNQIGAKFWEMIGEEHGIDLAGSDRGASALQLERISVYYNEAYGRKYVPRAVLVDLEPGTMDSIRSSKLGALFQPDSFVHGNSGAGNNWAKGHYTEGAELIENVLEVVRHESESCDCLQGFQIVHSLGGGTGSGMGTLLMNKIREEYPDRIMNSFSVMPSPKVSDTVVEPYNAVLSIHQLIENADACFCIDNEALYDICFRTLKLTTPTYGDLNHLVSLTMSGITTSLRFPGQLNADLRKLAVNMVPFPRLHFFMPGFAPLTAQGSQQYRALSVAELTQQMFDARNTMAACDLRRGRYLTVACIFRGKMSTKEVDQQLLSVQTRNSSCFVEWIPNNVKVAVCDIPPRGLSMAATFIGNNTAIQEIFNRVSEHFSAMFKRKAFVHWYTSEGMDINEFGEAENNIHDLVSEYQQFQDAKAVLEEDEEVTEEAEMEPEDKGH
UniProt Q15631: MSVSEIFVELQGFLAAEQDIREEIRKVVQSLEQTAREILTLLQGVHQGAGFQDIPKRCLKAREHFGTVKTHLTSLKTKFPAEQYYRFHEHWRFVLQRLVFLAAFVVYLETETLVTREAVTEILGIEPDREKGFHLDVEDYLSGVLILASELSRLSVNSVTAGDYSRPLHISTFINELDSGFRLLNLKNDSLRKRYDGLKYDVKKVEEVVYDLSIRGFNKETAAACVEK
UniProt Q6IPR3: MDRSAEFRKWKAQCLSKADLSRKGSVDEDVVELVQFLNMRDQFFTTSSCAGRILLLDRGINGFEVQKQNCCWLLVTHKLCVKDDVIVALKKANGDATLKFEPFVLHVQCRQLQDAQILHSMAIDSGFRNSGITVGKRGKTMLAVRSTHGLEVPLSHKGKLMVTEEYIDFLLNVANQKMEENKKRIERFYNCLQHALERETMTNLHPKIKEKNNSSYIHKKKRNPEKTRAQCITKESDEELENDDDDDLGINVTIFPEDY
UniProt P61086: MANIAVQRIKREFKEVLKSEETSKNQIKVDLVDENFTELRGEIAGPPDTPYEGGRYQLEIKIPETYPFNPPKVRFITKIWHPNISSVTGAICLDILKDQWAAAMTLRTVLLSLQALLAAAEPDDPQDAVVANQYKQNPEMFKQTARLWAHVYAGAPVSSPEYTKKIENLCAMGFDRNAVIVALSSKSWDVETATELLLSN
UniProt Q6DKK2: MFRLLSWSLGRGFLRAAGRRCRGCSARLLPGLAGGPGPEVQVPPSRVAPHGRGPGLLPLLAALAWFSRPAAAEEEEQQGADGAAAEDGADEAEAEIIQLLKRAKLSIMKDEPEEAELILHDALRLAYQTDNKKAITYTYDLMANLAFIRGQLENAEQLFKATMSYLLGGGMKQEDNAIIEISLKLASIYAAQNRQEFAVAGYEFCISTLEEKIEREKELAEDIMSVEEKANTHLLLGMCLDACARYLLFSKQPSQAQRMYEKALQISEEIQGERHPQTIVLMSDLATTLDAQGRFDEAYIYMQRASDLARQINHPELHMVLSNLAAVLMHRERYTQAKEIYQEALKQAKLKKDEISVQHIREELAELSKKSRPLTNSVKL
UniProt Q9BUF5, whole entry, looked up: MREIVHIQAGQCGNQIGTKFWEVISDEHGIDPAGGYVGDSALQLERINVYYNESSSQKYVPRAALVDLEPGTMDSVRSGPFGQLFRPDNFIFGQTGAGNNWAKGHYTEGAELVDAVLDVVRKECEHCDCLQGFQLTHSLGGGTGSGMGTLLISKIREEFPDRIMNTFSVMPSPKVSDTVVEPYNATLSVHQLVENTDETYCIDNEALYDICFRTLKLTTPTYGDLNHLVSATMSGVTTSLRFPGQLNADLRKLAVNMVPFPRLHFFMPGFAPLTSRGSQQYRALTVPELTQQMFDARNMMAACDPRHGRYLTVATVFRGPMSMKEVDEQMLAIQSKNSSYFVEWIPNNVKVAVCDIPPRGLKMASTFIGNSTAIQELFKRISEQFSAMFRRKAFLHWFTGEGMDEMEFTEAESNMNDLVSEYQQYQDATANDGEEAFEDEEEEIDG
UniProt P83876: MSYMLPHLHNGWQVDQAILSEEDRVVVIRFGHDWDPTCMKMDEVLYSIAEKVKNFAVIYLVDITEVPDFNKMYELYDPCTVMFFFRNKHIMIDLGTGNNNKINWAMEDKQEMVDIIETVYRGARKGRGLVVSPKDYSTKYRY

The list shows a part of the results.

Compound in the experiment: CN1CCc2c(c3ccccc3n2Cc2ccc(C(=O)NO)cc2)C1 [Tubastatin A]
The experiment is described as follows: log2 fold change, soluble protein after heating vs DMSO (PISA); higher = thermal stabilisation; K562 cells, 10 uM, 30 min; active = over 0.2 and 3.5 SD of the protein, either way, in both replicates (recomputed). The method in brief:
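K562 cells (2×10^6 cells/mL) were treated with 10 μM compound for 30 min, and aliquots were heated for 3 min over 48°C-58°C. Pooled aliquots were extracted in PBS with 0.5% NP-40 at 4°C, and the supernatant after 21,000xg for 90 min was measured by TMTpro 16plex LC-MS/MS with channel sums equalised. Reported thermal stability, relative to control samples and from duplicates, is a log2 fold change.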
As for TUBGCP2 isoform 4 (UniProt Q9BSJ2), the log2 fold change is inactive: 0.202.

For UBE2L3 isoform 3 (UniProt P68036), the log2 fold change was inactive: -0.009.

For the target UBE2M (UniProt P61081), the log2 fold change was inactive: 0.022.

U2SURP (UniProt O15042): the log2 fold change is inactive: 0.108.

For UAP1L1 (UniProt Q3KQV9), the log2 fold change is inactive: -0.085.

Regarding TUBA3C (UniProt P0DPH7), the log2 fold change is inactive: -0.08.

Consider TWF1 (UniProt Q12792), for which the log2 fold change was inactive: -0.018.

Take TXNDC16 (UniProt Q9P2K2): the log2 fold change was inactive: 0.045.

As for UBE2N (UniProt P61088), the log2 fold change was inactive: 0.037.

Turning to TSPAN3 (UniProt O60637), the log2 fold change is inactive: -0.071.

UBA5 (UniProt Q9GZZ9): the log2 fold change is inactive: -0.074.

On to TUBB4A (UniProt M0QYM7), for which the log2 fold change was inactive: 0.293.

On to UBE2Z (UniProt Q9H832), for which the log2 fold change is inactive: 0.017.

In the case of TTN isoform 12 (UniProt Q8WZ42), the log2 fold change is inactive: 0.054.

As for TUBB1 (UniProt Q9H4B7), the log2 fold change was inactive: -0.001.

TSN (UniProt Q15631): the log2 fold change was inactive: -0.018.

Turning to TYW3 (UniProt Q6IPR3), the log2 fold change is inactive: -0.027.

Consider UBE2D3 isoform 3 (UniProt P61077), for which the log2 fold change was inactive: 0.065.

On to UBE2K (UniProt P61086), for which the log2 fold change was inactive: -0.037.

TTC19 (UniProt Q6DKK2): the log2 fold change is inactive: 0.024.

Regarding UAP1 (UniProt Q16222), the log2 fold change is inactive: -0.019.

Consider TUBB6 (UniProt Q9BUF5), for which the log2 fold change was inactive: 0.017.

As to TXNL4A (UniProt P83876), the log2 fold change is inactive: -0.013.
